Assay results reported in PMC8690912.
No constants are given. Whether binding was seen depends on the method and setting. Binding seen in cells or lysates may run through a third protein. Some results given as binding are weak or reduced against the parent protein; the word gives no strength.

The chains behind the UniProt entries cited, without tags or fusion partners.
UniProt Q9CY97: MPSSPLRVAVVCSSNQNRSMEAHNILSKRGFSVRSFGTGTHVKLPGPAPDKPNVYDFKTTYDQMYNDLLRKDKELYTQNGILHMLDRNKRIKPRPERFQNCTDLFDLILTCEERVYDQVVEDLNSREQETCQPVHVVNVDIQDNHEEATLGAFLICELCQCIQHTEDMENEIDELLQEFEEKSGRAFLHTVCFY
UniProt Q99J95: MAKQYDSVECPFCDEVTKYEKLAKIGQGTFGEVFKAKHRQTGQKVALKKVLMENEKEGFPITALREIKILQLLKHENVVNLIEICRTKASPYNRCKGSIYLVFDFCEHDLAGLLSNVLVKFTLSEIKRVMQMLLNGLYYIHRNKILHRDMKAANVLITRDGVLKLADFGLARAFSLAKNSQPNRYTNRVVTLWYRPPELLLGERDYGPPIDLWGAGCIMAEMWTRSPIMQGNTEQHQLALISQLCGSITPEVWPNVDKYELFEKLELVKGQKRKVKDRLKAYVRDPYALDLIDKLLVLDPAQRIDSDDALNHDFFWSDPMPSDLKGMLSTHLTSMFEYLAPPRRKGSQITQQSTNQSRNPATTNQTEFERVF
UniProt Q9QWV9: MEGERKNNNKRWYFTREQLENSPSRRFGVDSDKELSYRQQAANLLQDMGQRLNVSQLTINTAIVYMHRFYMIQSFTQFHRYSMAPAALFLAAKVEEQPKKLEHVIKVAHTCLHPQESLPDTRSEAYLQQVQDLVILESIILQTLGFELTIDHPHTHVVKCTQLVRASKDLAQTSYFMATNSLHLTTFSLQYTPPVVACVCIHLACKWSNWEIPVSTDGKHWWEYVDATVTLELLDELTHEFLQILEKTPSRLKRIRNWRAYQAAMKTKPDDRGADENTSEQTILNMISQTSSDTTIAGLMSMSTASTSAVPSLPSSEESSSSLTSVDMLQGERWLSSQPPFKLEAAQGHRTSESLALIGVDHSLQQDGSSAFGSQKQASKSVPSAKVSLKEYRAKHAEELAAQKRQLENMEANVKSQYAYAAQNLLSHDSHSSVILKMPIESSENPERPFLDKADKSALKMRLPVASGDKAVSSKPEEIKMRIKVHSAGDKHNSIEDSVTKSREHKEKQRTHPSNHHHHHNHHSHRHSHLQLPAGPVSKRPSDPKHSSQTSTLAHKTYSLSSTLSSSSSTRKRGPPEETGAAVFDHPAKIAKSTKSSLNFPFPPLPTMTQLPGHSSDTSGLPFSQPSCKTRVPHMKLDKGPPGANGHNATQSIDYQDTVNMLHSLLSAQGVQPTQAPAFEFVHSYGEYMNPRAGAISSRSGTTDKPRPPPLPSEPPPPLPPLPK

Legend:
[1] = target: HA-tagged Ssu72 (HA-Ssu72) fusion protein (UniProt Q9CY97); experiment: co-IP; inducible MEFs expressing HA-Ssu72, without or with 2 µg/ml doxycycline for 48 h; cellular extracts incubated without or with 50 µg/ml RNase and immunoprecipitated with IgG or HA antibodies
[2] = target: Ssu72 phosphatase (endogenous mouse Ssu72) (mouse (endogenous in MEFs)) (UniProt Q9CY97); experiment: co-IP; extracts (soluble cytoplasmic and pellet fractions mixed, salt diluted to 150 mM) of Ad-Luc or Ad-Cre (Ssu72-depleted) infected MEFs, immunoprecipitated with IgG, anti-Cdk9, anti-Ssu72 or anti-Pol II antibodies, then immunoblotted; all proteins endogenous

| Substance | binding [1] | binding [2] |
| --- | --- | --- |
| Cdk9 (from UniProt Q99J95 1-372) (enzyme) | binds | binds |
| Cyclin T1 (from UniProt Q9QWV9 1-724) | binds | binds |
